Source: article PMC3922604
Results are given in words; binding and its absence hold for the method and conditions named. Binding seen in cells or lysates may run through a third protein. These calls come from enrichment with a bait or labelling near it, and not all partners need be listed.

By UniProt entry, the sequences of proteins in these tests, tags left out. Residues count along the entry.
UniProt P02768, residues 25-609: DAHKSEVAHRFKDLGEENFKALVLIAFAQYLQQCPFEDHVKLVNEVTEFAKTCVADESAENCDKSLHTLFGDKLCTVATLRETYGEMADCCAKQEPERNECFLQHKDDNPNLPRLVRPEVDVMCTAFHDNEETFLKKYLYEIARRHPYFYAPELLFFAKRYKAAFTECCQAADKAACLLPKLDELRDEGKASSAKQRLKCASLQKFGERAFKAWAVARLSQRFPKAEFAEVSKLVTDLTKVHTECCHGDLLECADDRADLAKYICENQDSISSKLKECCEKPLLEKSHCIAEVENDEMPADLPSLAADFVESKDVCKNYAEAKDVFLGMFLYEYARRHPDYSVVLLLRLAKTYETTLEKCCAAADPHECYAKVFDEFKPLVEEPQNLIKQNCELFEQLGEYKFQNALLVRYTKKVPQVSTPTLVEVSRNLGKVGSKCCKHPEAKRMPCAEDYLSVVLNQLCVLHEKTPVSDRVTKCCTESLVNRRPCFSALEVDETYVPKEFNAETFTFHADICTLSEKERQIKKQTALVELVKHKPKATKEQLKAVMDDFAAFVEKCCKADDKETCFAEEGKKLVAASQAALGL

B1: S10A7_HUMAN (protein, UniProt P31151 1-101)
chain: MSNTQAERSIIGMIDMFHKYTRRDDKIEKPSLLTMMKENFPNFLSACDKKGTNYLADVFEKKDKNEDKKIDFSEFLSLLGDIATDYHKQSHGAAPCSGGSQ
B2: SPB3_HUMAN (protein, UniProt P29508 1-390)
chain: MNSLSEANTKFMFDLFQQFRKSKENNIFYSPISITSALGMVLLGAKDNTAQQIKKVLHFDQVTENTTGKAATYHVDRSGNVHHQFQKLLTEFNKSTDAYELKIANKLFGEKTYLFLQEYLDAIKKFYQTSVESVDFANAPEESRKKINSWVESQTNEKIKNLIPEGNIGSNTTLVLVNAIYFKGQWEKKFNKEDTKEEKFWPNKNTYKSIQMMRQYTSFHFASLEDVQAKVLEIPYKGKDLSMIVLLPNEIDGLQKLEEKLTAEKLMEWTSLQNMRETRVDLHLPRFKVEESYDLKDTLRTMGMVDIFNGDADLSGMTGSRGLVLSGVLHKAFVEVTEEGAEAAAATAVVGFGSSPTSTNEEFHCNHPFLFFIRQNKTNSILFYGRFSSP
B3: S10A9_HUMAN (protein, UniProt P06702 1-114)
chain: MTCKMSQLERNIETIINTFHQYSVKLGHPDTLNQGEFKELVRKDLQNFLKKENKNEKVIEHIMEDLDTNADKQLSFEEFIMLMARLTWASHEKMHEGDEGPGHHHKPGLGEGTP
B4: CATA_HUMAN (protein, UniProt P04040 1-527)
chain: MADSRDPASDQMQHWKEQRAAQKADVLTTGAGNPVGDKLNVITVGPRGPLLVQDVVFTDEMAHFDRERIPERVVHAKGAGAFGYFEVTHDITKYSKAKVFEHIGKKTPIAVRFSTVAGESGSADTVRDPRGFAVKFYTEDGNWDLVGNNTPIFFIRDPILFPSFIHSQKRNPQTHLKDPDMVWDFWSLRPESLHQVSFLFSDRGIPDGHRHMNGYGSHTFKLVNANGEAVYCKFHYKTDQGIKNLSVEDAARLSQEDPDYGIRDLFNAIATGKYPSWTFYIQVMTFNQAETFPFNPFDLTKVWPHKDYPLIPVGKLVLNRNPVNYFAEVEQIAFDPSNMPPGIEASPDKMLQGRLFAYPDTHRHRLGPNYLHIPVNCPYRARVANYQRDGPMCMQDNQGGAPNYYPNSFGAPEQQPSALEHSIQYSGEVRRFNTANDDNVTQVRAFYVNVLNEEQRKRLCENIAGHLKDAQIFIQKKAVKNFTEVHPDYGSHIQALLDKYNAEKPKNAIHTFVQSGSHLAAREKANL
B5: PRDX2_HUMAN (protein, UniProt P32119 1-198)
chain: MASGNARIGKPAPDFKATAVVDGAFKEVKLSDYKGKYVVLFFYPLDFTFVCPTEIIAFSNRAEDFRKLGCEVLGVSVDSQFTHLAWINTPRKEGGLGPLNIPLLADVTRRLSEDYGVLKTDEGIAYRGLFIIDGKGVLRQITVNDLPVGRSVDEALRLVQAFQYTDEHGEVCPAGWKPGSDTIKPNVDDSKEYFSKHN
B6: IC1_HUMAN (protein, UniProt P05155 23-500)
chain: NPNATSSSSQDPESLQDRGEGKVATTVISKMLFVEPILEVSSLPTTNSTTNSATKITANTTDEPTTQPTTEPTTQPTIQPTQPTTQLPTDSPTQPTTGSFCPGPVTLCSDLESHSTEAVLGDALVDFSLKLYHAFSAMKKVETNMAFSPFSIASLLTQVLLGAGENTKTNLESILSYPKDFTCVHQALKGFTTKGVTSVSQIFHSPDLAIRDTFVNASRTLYSSSPRVLSNNSDANLELINTWVAKNTNNKISRLLDSLPSDTRLVLLNAIYLSAKWKTTFDPKKTRMEPFHFKNSVIKVPMMNSKKYPVAHFIDQTLKAKVGQLQLSHNLSLVILVPQNLKHRLEDMEQALSPSVFKAIMEKLEMSKFQPTLLTLPRIKVTTSQDMLSIMEKLEFFDFSYDLNLCGLTEDPDLQVSAMQHQTVLELTETGVEAAAASAISVARTLLVFEVQQPFLFVLWDQQHKFPVFMGRVYDPRA
B7: PIP_HUMAN (protein, UniProt P12273 29-146)
chain: QDNTRKIIIKNFDIPKSVRPNDEVTAVLAVQTELKECMVVKTYLISSIPLQGAFNYKYTACLCDDNPKTFYWDFYTNRTVQIAAVVDVIRELGICPDDAAVIPIKNNRFYTIEILKVE
B8: CERU_HUMAN (protein, UniProt P00450 20-1065)
chain: KEKHYYIGIIETTWDYASDHGEKKLISVDTEHSNIYLQNGPDRIGRLYKKALYLQYTDETFRTTIEKPVWLGFLGPIIKAETGDKVYVHLKNLASRPYTFHSHGITYYKEHEGAIYPDNTTDFQRADDKVYPGEQYTYMLLATEEQSPGEGDGNCVTRIYHSHIDAPKDIASGLIGPLIICKKDSLDKEKEKHIDREFVVMFSVVDENFSWYLEDNIKTYCSEPEKVDKDNEDFQESNRMYSVNGYTFGSLPGLSMCAEDRVKWYLFGMGNEVDVHAAFFHGQALTNKNYRIDTINLFPATLFDAYMVAQNPGEWMLSCQNLNHLKAGLQAFFQVQECNKSSSKDNIRGKHVRHYYIAAEEIIWNYAPSGIDIFTKENLTAPGSDSAVFFEQGTTRIGGSYKKLVYREYTDASFTNRKERGPEEEHLGILGPVIWAEVGDTIRVTFHNKGAYPLSIEPIGVRFNKNNEGTYYSPNYNPQSRSVPPSASHVAPTETFTYEWTVPKEVGPTNADPVCLAKMYYSAVEPTKDIFTGLIGPMKICKKGSLHANGRQKDVDKEFYLFPTVFDENESLLLEDNIRMFTTAPDQVDKEDEDFQESNKMHSMNGFMYGNQPGLTMCKGDSVVWYLFSAGNEADVHGIYFSGNTYLWRGERRDTANLFPQTSLTLHMWPDTEGTFNVECLTTDHYTGGMKQKYTVNQCRRQSEDSTFYLGERTYYIAAVEVEWDYSPQREWEKELHHLQEQNVSNAFLDKGEFYIGSKYKKVVYRQYTDSTFRVPVERKAEEEHLGILGPQLHADVGDKVKIIFKNMATRPYSIHAHGVQTESSTVTPTLPGETLTYVWKIPERSGAGTEDSACIPWAYYSTVDQVKDLYSGLIGPLIVCRRPYLKVFNPRRKLEFALLFLVFDENESWYLDDNIKTYSDHPEKVNKDDEEFIESNKMHAINGRMFGNLQGLTMHVGDEVNWYLMGMGNEIDLHTVHFHGHSFQYKHRGVYSSDVFDIFPGTYQTLEMFPRTPGIWLLHCHVTDHIHAGMETTYTVLQNEDTKSG
B9: A2MG_HUMAN, P01023 24-1474 (protein)
chain: SVSGKPQYMVLVPSLLHTETTEKGCVLLSYLNETVTVSASLESVRGNRSLFTDLEAENDVLHCVAFAVPKSSSNEEVMFLTVQVKGPTQEFKKRTTVMVKNEDSLVFVQTDKSIYKPGQTVKFRVVSMDENFHPLNELIPLVYIQDPKGNRIAQWQSFQLEGGLKQFSFPLSSEPFQGSYKVVVQKKSGGRTEHPFTVEEFVLPKFEVQVTVPKIITILEEEMNVSVCGLYTYGKPVPGHVTVSICRKYSDASDCHGEDSQAFCEKFSGQLNSHGCFYQQVKTKVFQLKRKEYEMKLHTEAQIQEEGTVVELTGRQSSEITRTITKLSFVKVDSHFRQGIPFFGQVRLVDGKGVPIPNKVIFIRGNEANYYSNATTDEHGLVQFSINTTNVMGTSLTVRVNYKDRSPCYGYQWVSEEHEEAHHTAYLVFSPSKSFVHLEPMSHELPCGHTQTVQAHYILNGGTLLGLKKLSFYYLIMAKGGIVRTGTHGLLVKQEDMKGHFSISIPVKSDIAPVARLLIYAVLPTGDVIGDSAKYDVENCLANKVDLSFSPSQSLPASHAHLRVTAAPQSVCALRAVDQSVLLMKPDAELSASSVYNLLPEKDLTGFPGPLNDQDNEDCINRHNVYINGITYTPVSSTNEKDMYSFLEDMGLKAFTNSKIRKPKMCPQLQQYEMHGPEGLRVGFYESDVMGRGHARLVHVEEPHTETVRKYFPETWIWDLVVVNSAGVAEVGVTVPDTITEWKAGAFCLSEDAGLGISSTASLRAFQPFFVELTMPYSVIRGEAFTLKATVLNYLPKCIRVSVQLEASPAFLAVPVEKEQAPHCICANGRQTVSWAVTPKSLGNVNFTVSAEALESQELCGTEVPSVPEHGRKDTVIKPLLVEPEGLEKETTFNSLLCPSGGEVSEELSLKLPPNVVEESARASVSVLGDILGSAMQNTQNLLQMPYGCGEQNMVLFAPNIYVLDYLNETQQLTPEIKSKAIGYLNTGYQRQLNYKHYDGSYSTFGERYGRNQGNTWLTAFVLKTFAQARAYIFIDEAHITQALIWLSQRQKDNGCFRSSGSLLNNAIKGGVEDEVTLSAYITIALLEIPLTVTHPVVRNALFCLESAWKTAQEGDHGSHVYTKALLAYAFALAGNQDKRKEVLKSLNEEAVKKDNSVHWERPQKPKAPVGHFYEPQAPSAEVEMTSYVLLAYLTAQPAPTSEDLTSATNIVKWITKQQNAQGGFSSTQDTVVALHALSKYGAATFTRTGKAAQVTIQSSGTFSSKFQVDNNNRLLLQQVSLPELPGEYSMKVTGEGCVYLQTSLKYNILPEKEEFPFALGVQTLPQTCDEPKAHTSFQISLSVSYTGSRSASNMAIVDVKMVSGFIPLKPTVKMLERSNHVSRTEVSSNHVLIYLDKVSNQTLSLFFTVLQDVPVRDLKPAIVKVYDYYETDEFAIAEYNAPCSKDLGNA

target: albumin (human (endogenous in blood)) (UniProt P02768); experiment: cross-linking + affinity purification with mass spectrometry; fresh human blood cross-linked 5 s in 10% formaldehyde, quenched with 4 M Tris; immunoprecipitation with anti-human serum albumin antibody and Protein A + G agarose, washed with PBS; 4-12% SDS-PAGE, six unstained slices above 70 kDa, LC-MS/MS; control: cross-linked sample without antibody; settings: not given

binding, binds:
B1
B2
B3
B4
B5
B6
B7
B8

target: albumin (human (endogenous in blood)), P02768; experiment: as above; settings: remark: other sources report otherwise

binding, binds:
B9
